Experiment: peptide made by a vendor
Settings: whole synthesis, 220nm

Substance: H-AVAEHQLMHNRAKWIQDARRRAFLHKLIAEIHTAEI-OH
- final HPLC purity: 95.98%

Substance: H-AVAEHQLMHQLAKWIQDARRRAFLHKLIAEIHTAEI-OH
- final HPLC purity: 97.52%

Substance: H-AVAEHQLMHQRAKHIQDARRRAFLHKLIAEIHTAEI-OH
- final HPLC purity: 95.39%

Substance: H-AVAEHQLMHQRAKWIQDARRRAFLHKLIAEIHTAEI
- final HPLC purity: 95.22%

Substance: H-AVAEHQLMHQRAKWIQDLRRRFFLHHLIAEIHTAEI-NH2
- final HPLC purity: 96.98%

Substance: H-AVAEHQLMHQRAKWLNSMERVEWLRKKLQDVHNF-OH
- final HPLC purity: 95.24%

Substance: H-AVAEHQLMHQRGKWIQDARRRAFLHKLIAEIHTAEI-OH
- final HPLC purity: 99.36%

Substance: H-AVAEIQLLHQRAKWIQDARRRAFLHKLIAEIHTAEI
- final HPLC purity: 97.82%

Substance: H-AVAEIQLMHQRAKSIQDARRRAFLHKLIAEIHTAEI
- final HPLC purity: 95.28%

Substance: H-AVAEIQLMHQRAKWIQDARRRAFLHKLIAEIHTAEI-OH
- final HPLC purity: 95.32%

Substance: H-AVSEHQLLHDKGKSIQDLRRRELLEKLL-{Aib}-KLHTA-NH2
- final HPLC purity: 95.58%

Substance: H-AVSEHQLMHQRAKWIQDARRRAFLHKLIAEIHTAEI-OH
- final HPLC purity: 95.66%

Substance: H-AVSEIQLLHDKGKSIQDLRRRELLEKLL-{Aib}-KLHTA-NH2
- final HPLC purity: 97.36%

Substance: H-SVAEHQLMHQRAKWIQDARRRAFLHKLIAEIHTAEI-OH
- final HPLC purity: 95.35%

Substance: H-SVSEHQLMHNLGKHIQDARRRAFLHKLIAEIHTAEI-OH
- final HPLC purity: 95.52%

Substance: H-SVSEHQLMHNLGKHLNSMERVEWLRKKLQDVHNF-OH
- final HPLC purity: 95.33%

Substance: H-SVSEIQLMHNLGKHLNSMERVEWLRKKLQDVHNF-OH
- final HPLC purity: 95.10%

Source: paper PMC9586930 (Nature Communications, 2022)
